PubChem BioAssay AID1159584, Peter MacCallum Cancer Centre | 2016
Purpose: 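Knock-downs that harm CDH1-null cells more than parental MCF10A cells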 (primary screen). Cells: human MCF10A breast epithelial cells, parental and CDH1-null. Reagents: siRNA against human genes. Detection: 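Cell viability by CellTiter-Glo ATP luminescence, each line scaled to the mean of mock wells across plates, then CDH1-null over parental ratio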. Scale: CDH1-null / parental viability ratio: higher = CDH1-null cells survive relatively better than parental; CDH1-null viability vs mock: higher = more viable CDH1-null cells. Units: CDH1-null viability vs mock in fraction of mock.
Shown is a random part of about 18,000 deposited reagents. Further read-outs or replicates are left out here. The record does not give: the amount of reagent, the time to read-out.

The first 4 records as a preview:
CLIP1
- CDH1-null / parental viability ratio: 0.85
- CDH1-null viability vs mock: 0.82

CCR7
- CDH1-null / parental viability ratio: 1.4
- CDH1-null viability vs mock: 1.08

ABITRAM
- CDH1-null / parental viability ratio: 1.14
- CDH1-null viability vs mock: 1.19

ADAM11
- CDH1-null / parental viability ratio: 1.24
- CDH1-null viability vs mock: 1.07

The listing, repeating the preview:
CLIP1
- CDH1-null / parental viability ratio: 0.85
- CDH1-null viability vs mock: 0.82

CCR7
- CDH1-null / parental viability ratio: 1.4
- CDH1-null viability vs mock: 1.08

ABITRAM
- CDH1-null / parental viability ratio: 1.14
- CDH1-null viability vs mock: 1.19

ADAM11
- CDH1-null / parental viability ratio: 1.24
- CDH1-null viability vs mock: 1.07

NCR1
- CDH1-null / parental viability ratio: 1.06
- CDH1-null viability vs mock: 0.74

FAM219A
- CDH1-null / parental viability ratio: 0.8
- CDH1-null viability vs mock: 0.64

SMURF1
- CDH1-null / parental viability ratio: 1.18
- CDH1-null viability vs mock: 0.93

TRPT1
- CDH1-null / parental viability ratio: 1.35
- CDH1-null viability vs mock: 0.74

DHX30
- CDH1-null / parental viability ratio: 1
- CDH1-null viability vs mock: 0.88

YLPM1
- CDH1-null / parental viability ratio: 1.21
- CDH1-null viability vs mock: 1.19

PEF1
- CDH1-null / parental viability ratio: 1.16
- CDH1-null viability vs mock: 0.72

GLTPD2
- CDH1-null / parental viability ratio: 1.18
- CDH1-null viability vs mock: 1.04

WHR1
- CDH1-null / parental viability ratio: 0.75
- CDH1-null viability vs mock: 0.78

DSN1
- CDH1-null / parental viability ratio: 1.05
- CDH1-null viability vs mock: 0.92

RBM10
- CDH1-null / parental viability ratio: 1.17
- CDH1-null viability vs mock: 0.42

PYY
- CDH1-null / parental viability ratio: 0.6
- CDH1-null viability vs mock: 0.34

RB1CC1
- CDH1-null / parental viability ratio: 1.15
- CDH1-null viability vs mock: 0.75

TJAP1
- CDH1-null / parental viability ratio: 1.11
- CDH1-null viability vs mock: 0.6

PDE6C
- CDH1-null / parental viability ratio: 0.87
- CDH1-null viability vs mock: 0.9

SLC26A11
- CDH1-null / parental viability ratio: 0.9
- CDH1-null viability vs mock: 1.01

KATNAL1
- CDH1-null / parental viability ratio: 0.8
- CDH1-null viability vs mock: 0.79

C2orf68
- CDH1-null / parental viability ratio: 0.7
- CDH1-null viability vs mock: 0.51

RGPD5
- CDH1-null / parental viability ratio: 1.02
- CDH1-null viability vs mock: 0.54

CSH2
- CDH1-null / parental viability ratio: 1.17
- CDH1-null viability vs mock: 0.84

PTER
- CDH1-null / parental viability ratio: 1.05
- CDH1-null viability vs mock: 0.84

SDS
- CDH1-null / parental viability ratio: 0.99
- CDH1-null viability vs mock: 0.9

FAM27E5
- CDH1-null / parental viability ratio: 1.27
- CDH1-null viability vs mock: 0.56

RPS5
- CDH1-null / parental viability ratio: 1.37
- CDH1-null viability vs mock: 0.52

SNF8
- CDH1-null / parental viability ratio: 0.81
- CDH1-null viability vs mock: 0.71

BIRC8
- CDH1-null / parental viability ratio: 0.91
- CDH1-null viability vs mock: 0.84

COL26A1
- CDH1-null / parental viability ratio: 1.1
- CDH1-null viability vs mock: 0.9

HOXD3
- CDH1-null / parental viability ratio: 1.1
- CDH1-null viability vs mock: 1.09

RAB40B
- CDH1-null / parental viability ratio: 0.96
- CDH1-null viability vs mock: 0.87

CTSL
- CDH1-null / parental viability ratio: 1.27
- CDH1-null viability vs mock: 0.76

VPS36
- CDH1-null / parental viability ratio: 0.93
- CDH1-null viability vs mock: 0.65
